Experiment [1] addresses C-terminally flagged ICln (FLAG-ICln) (human) (UniProt P54105). The experiment in a line: co-IP; HEK cells transfected with pFLAG-ICln or pFLAG-BAP (control), alone or with Y-4.1R chimeras; lysis in 25 mM Tris pH 8, 150 mM NaCl, 10% glycerol, 0.5% Triton X-100; 2 mg supernatant on anti-FLAG M2 affinity gel; elution with FLAG peptide; Western blot.
Experiment [2] addresses YFP-tagged 4.1R^135 (Y-4.1R^135) (human) (UniProt P11171). The experiment is described as follows: FRET or BRET; acceptor photobleaching FRET (FRETeff), HEK cells fixed in 4% PFA, kept in PBS; C-ßactin donor, YFP acceptor; with IRES-DsRED or ICln-IRES-DsRED; ROIs of the thin cytoplasmic layer underlying the plasma membrane. In general terms: Bioluminescence resonance energy transfer reports proximity on the nanometre scale.

The chains behind the UniProt entries cited, without tags or fusion partners. Where a name states a change or a piece, a line headed by the entry shows the natural chain unless it says otherwise. A line that says so, or that is headed by a name, gives the form on record, which may keep a tag or linker.
UniProt P54105: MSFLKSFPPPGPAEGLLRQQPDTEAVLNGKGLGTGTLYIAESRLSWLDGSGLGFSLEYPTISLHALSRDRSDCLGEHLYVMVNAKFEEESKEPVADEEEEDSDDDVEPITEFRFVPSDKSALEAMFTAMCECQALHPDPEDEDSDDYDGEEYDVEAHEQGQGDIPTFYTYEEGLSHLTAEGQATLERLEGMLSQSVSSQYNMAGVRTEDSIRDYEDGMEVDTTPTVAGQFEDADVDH
4.1R^135, untagged (from 4.1R^135-IRES-GFP) (P11171-2, form named): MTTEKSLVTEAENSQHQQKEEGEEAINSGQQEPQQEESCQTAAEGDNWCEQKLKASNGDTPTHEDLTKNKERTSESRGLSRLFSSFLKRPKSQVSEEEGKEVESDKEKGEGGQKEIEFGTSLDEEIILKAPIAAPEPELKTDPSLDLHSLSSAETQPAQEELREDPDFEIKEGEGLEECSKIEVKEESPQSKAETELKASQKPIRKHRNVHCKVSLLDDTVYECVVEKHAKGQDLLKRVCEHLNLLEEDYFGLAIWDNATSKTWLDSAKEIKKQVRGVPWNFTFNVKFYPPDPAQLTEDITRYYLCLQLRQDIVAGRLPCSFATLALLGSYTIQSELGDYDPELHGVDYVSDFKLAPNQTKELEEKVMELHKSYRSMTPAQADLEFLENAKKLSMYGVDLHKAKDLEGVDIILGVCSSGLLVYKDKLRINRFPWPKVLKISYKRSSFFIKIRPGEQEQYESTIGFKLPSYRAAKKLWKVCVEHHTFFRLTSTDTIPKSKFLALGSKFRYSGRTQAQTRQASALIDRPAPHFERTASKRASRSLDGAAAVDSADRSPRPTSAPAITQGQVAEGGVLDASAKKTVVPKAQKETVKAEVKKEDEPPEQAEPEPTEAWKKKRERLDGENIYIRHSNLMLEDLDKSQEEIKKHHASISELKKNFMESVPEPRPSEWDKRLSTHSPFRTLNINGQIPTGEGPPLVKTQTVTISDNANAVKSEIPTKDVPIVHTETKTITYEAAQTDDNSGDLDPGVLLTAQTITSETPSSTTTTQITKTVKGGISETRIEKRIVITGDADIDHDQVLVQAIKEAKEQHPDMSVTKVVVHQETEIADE

Experiment [3] concerns the target 4.1R^135, untagged (from 4.1R^135-IRES-GFP) (human) (UniProt P11171). The experiment is described as follows: co-IP; HEK cells transfected with 4.1R-IRES-EGFP vectors, alone or with C-ICln or CFP; lysis in CHAPS binding buffer (25 mM HEPES, 150 mM NaCl, 1 mM MgCl2, 0.5% CHAPS); 2 mg supernatant overnight at 4°C with agarose-bound goat anti-actin (I-19) or goat IgG agarose (control); Western blot with anti-4.1R and anti-actin. In general terms: In western blotting, separated proteins are transferred to a membrane and probed.

These are yes or no findings as the source states them, for the method shown. Binding seen in cells or lysates may run through a third protein. Some binding calls cover weakened binding; strength is not graded here.

Take “YFP-tagged 4.1R^135 (Y-4.1R^135) (from UniProt P11171-2 1-831)”: in experiment [1], the binding result is “binds”.
For “ICln, untagged (from ICln-IRES-dsRED) (from UniProt P54105 1-237)”, the binding result in experiment [2] is “binds”.
For the substance “CFP-tagged ICln (C-ICln) (from UniProt P54105 1-237)”, the binding result in experiment [3] is “binds”.

Source of the values: PMC4189953.
